Source: PubChem BioAssay AID1347076 (National Center for Advancing Translational Sciences (NCATS), 2019)
In all, about 400,000 compounds went through this assay and about 13,000 (3.2%) were called active. The shares of active, inactive and inconclusive entries below differ from those in the screen. Calls follow the shape of the dose curve; as a rule, active = well fitted cell-killing curve with a large enough effect; inconclusive = small, poorly fitted or top-dose-only effect, or effect the other way; inactive = flat fitted curve, though single readings scatter. Potencies of inconclusive entries are doubtful fits and often do not repeat.

Assay: qHTS assay for MDR1-selective chemotherapeutics: Primary screen using the drug-selected MDR subline cells KB-V1; also: nearly all actives have a fitted effect of over 60% in size
Details: KB-V1 MDR cells viability, CellTiter-Glo, 72 h; activity change, negative = cytotoxicity: at 46.1 µM (top of the series)
In short: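 Potencies derive from concentration-effect curves fitted to normalized luminescence (CellTiter-Glo) of KB-V1 cells treated for 72 h at 37 degrees C in phenol-red-free DMEM containing 10% FBS.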
% is scaled to controls: 0 for no effect and ±100 for the full control effect; potency is read from the fitted curve at half-maximal effect.

| SMILES | Potency | activity change, negative = cytotoxicity |
| --- | --- | --- |
| O=C1c2cccc3cccc(c23)C(=O)N1CCN1CCN(CC(O)COc2ccc3ccccc3c2)CC1 (stereo not drawn) | inconclusive: 7.31 µM [cytotoxic, single point] |  |
| Fc1ccc(/C=N/Nc2nccnc2Cl)cc1 |  | inactive: -6.86% |
| CCOC(=O)C1CCN(c2csc3ccc(C)cc3c2=O)CC1 | inconclusive: 29.1 µM [rising, single point] |  |
| Clc1cccc(N2CCN(c3nc4ccccc4c4nc(-c5ccccc5)nn34)CC2)c1 | inconclusive: 8.2 µM [rising, partial curve] |  |
| NC(Cc1ccc(C(F)(F)F)cc1)c1csc(NC(=O)NCCc2ccccc2)n1 (stereo not drawn) |  | inactive: -6.77% |
| COc1ccc(Br)c(C(=O)Nc2ccc(F)cc2)c1 |  | inactive: -20.4% |
| Oc1c(Br)cc(Br)cc1/C=N/c1nc2c(s1)CCCC2 |  | inactive: -7.99% |
| CC1CCN(S(=O)(=O)c2ccc(S(=O)(=O)N3CCC4(CC3)OCCO4)cc2)CC1 | inconclusive: 9.2 µM [cytotoxic, partial curve] |  |
| CCN1CCN(c2cc(C)c3cc(NC(=O)c4cc(OC)c(OC)c(OC)c4)ccc3n2)CC1 |  | inactive: -15% |
| CC(C)NC(=O)c1onc(CSc2ccc(F)cc2)c1C(=O)NC(C)C |  | inactive: -7.91% |
| O=[N+]([O-])c1ccc(N2CCN(S(=O)(=O)c3ccc4ccccc4c3)CC2)cc1NCC1CCCO1 (stereo not drawn) |  | inactive: 0% |
| NC(=O)c1ccccc1OCC(=O)N1CCc2ccccc2C1 | inconclusive: 20.6 µM [cytotoxic, single point] |  |
| C=C(C)CSc1nc2ccccc2c(=O)n1-c1c(C)n(C)n(-c2ccccc2)c1=O | inconclusive: 7.31 µM [cytotoxic, partial curve, poor fit] |  |
| CN(Cc1ccccc1)c1nc2c(c(=O)[nH]c(=O)n2C)n1Cc1ccccc1F |  | inactive: 0% |
| CN1C(=O)S/C(=C/c2cccn2-c2cccc(C(=O)O)c2)C1=O | inconclusive: 3.66 µM [cytotoxic, partial curve, poor fit] |  |
| Cc1ccc(C(=O)N/C(=C/c2ccc(-c3ccc(Br)cc3)o2)C(=O)NC2CCS(=O)(=O)C2)cc1 (stereo not drawn) | inconclusive: 20.6 µM [cytotoxic, single point] |  |
| Cn1c(=O)cc(SCC(=O)NCCc2ccc(Cl)cc2)c2cc(Cl)ccc21 |  | inactive: 4.09% |
| COc1ccc(NC(=O)CN2CCN(c3nc(-c4ccc(F)cc4)cs3)CC2)c(OC)c1 | inconclusive: 29.1 µM [cytotoxic, single point] |  |
| Cc1c(C(=O)NCc2ccc([N+](=O)[O-])cc2)sc(=O)n1Cc1ccc(-c2ccccc2)cc1 | inconclusive: 14.6 µM [cytotoxic, partial curve] |  |
| Cn1c(=O)oc2cc(NC(=O)CCl)ccc21 | inconclusive: 29.1 µM [cytotoxic, single point] |  |
| c1csc(C2Nc3ccccc3-c3nc4ccccc4n32)c1 (stereo not drawn) | inconclusive: 18.4 µM [cytotoxic, partial curve, poor fit] |  |
| COc1ccccc1NC(=O)CCc1nnc2ccc(NCc3ccco3)nn12 | inconclusive: 29.1 µM [rising, single point] |  |
| COc1ccc(-c2cc(C(C)=O)c(C)n2CCC(=O)Nc2cccc(C)c2C)cc1 |  | inactive: -21.6% |

Part of the list above in order of molar mass, low to high.

| SMILES | Potency | activity change, negative = cytotoxicity |
| --- | --- | --- |
| NC(=O)c1ccccc1OCC(=O)N1CCc2ccccc2C1 | inconclusive: 20.6 µM [cytotoxic, single point] |  |
| CN(Cc1ccccc1)c1nc2c(c(=O)[nH]c(=O)n2C)n1Cc1ccccc1F |  | inactive: 0% |
| Cn1c(=O)cc(SCC(=O)NCCc2ccc(Cl)cc2)c2cc(Cl)ccc21 |  | inactive: 4.09% |
| Cc1c(C(=O)NCc2ccc([N+](=O)[O-])cc2)sc(=O)n1Cc1ccc(-c2ccccc2)cc1 | inconclusive: 14.6 µM [cytotoxic, partial curve] |  |

Next entries follow.

| SMILES | Potency | activity change, negative = cytotoxicity |
| --- | --- | --- |
| Cc1ccc(O)c(CN(C)Cc2cc(C)ccc2O)c1 | active: 20.6 µM |  |
| CCNC(=O)CC1C(=O)N(c2ccc(F)cc2)C(=S)N1CCc1ccncc1 (stereo not drawn) |  | inactive: 0% |
| CC1=C(C(=O)N2CCOCC2)CC(CC(=O)NCc2cccs2)C(=O)N1CCC1=CCCCC1 (stereo not drawn) | inconclusive: 0.082 µM [rising, full curve] |  |
| Cc1ccc2cc(C(c3nnnn3C3CCCC3)N(Cc3ccccc3)Cc3ccco3)c(=O)[nH]c2c1 (stereo not drawn) | inconclusive: 14.6 µM [cytotoxic, partial curve, poor fit] |  |
| COc1ccc(NC(NC(=O)c2ccc(OC)cc2)C(Cl)(Cl)Cl)cc1 (stereo not drawn) | inconclusive: 25.9 µM [cytotoxic, partial curve, poor fit] |  |
| CC1(C)Cc2c(ccc3ccccc23)C(c2cc3ccccc3oc2=O)=N1 |  | inactive: 0% |
| CC1(c2ccccc2)CC(c2ccccc2)=Nc2nonc2N1 (stereo not drawn) | inconclusive: 29.1 µM [cytotoxic, single point] |  |
| CC(OC(=O)Cc1c[nH]c2ccccc12)C(=O)NC1CCCCC1C (stereo not drawn) |  | inactive: -1.25% |
| O=C(Nc1ccc2nc3n(c(=O)c2c1)CCCC3)c1cc([N+](=O)[O-])ccc1F | active: 16.4 µM |  |
| COc1ccc(-n2c(=O)c3ccc(C(=O)NCc4ccc(C)cc4)cc3n(Cc3ccc(F)cc3Cl)c2=O)cc1 | inconclusive: 18.4 µM [rising, single point] |  |
| NC(=O)c1ccsc1NC(=O)Cc1ccc([N+](=O)[O-])cc1 | inconclusive: 20.6 µM [cytotoxic, single point] |  |
| Cc1c(Br)c(C(=O)NNC(=O)c2ccc(C(C)(C)C)cc2)nn1C | inconclusive: 16.4 µM [cytotoxic, partial curve, poor fit] |  |
| CC(C)c1ccc(N(CC(=O)NCCSCc2ccco2)S(C)(=O)=O)cc1 | inconclusive: 23.1 µM [cytotoxic, single point] |  |
| Cc1nn(-c2ccccc2)c(C)c1/C=N/NC(=O)c1cc(O)cc(O)c1 |  | inactive: 0% |
| CN(CC(=O)Nc1ccccc1Cl)C(=O)CSC(=S)N1CCCC1 |  | inactive: 3.58% |
| COc1ccc(N2CCN(C(=O)CCc3nnc4n(C)c(=O)c5sccc5n34)CC2)cc1 | inconclusive: 29.1 µM [rising, single point] |  |
| CCOC(=O)c1[nH]c2c(c1C)C(=O)CC(c1ccc(OCC)c(OC)c1)C2 (stereo not drawn) | inconclusive: 2.59 µM [cytotoxic, full curve] |  |
| CCOc1ccc(N=Cc2ccccc2O)cc1 |  | inactive: 9.76% |
| Cc1ccc(Cc2cnc(N3C(=N)SC(c4ccccc4)C3=O)s2)cc1 (stereo not drawn) |  | inconclusive: -75.7% |
| CCCCN1C(=O)C(CC(=O)NC2CCCC2)CC(C(=O)N(C(C)C)C(C)C)=C1C (stereo not drawn) |  | inactive: -19.8% |
| O=C(NN1C(=O)C2C3C=CC(O3)C2C1=O)c1ccncc1 (stereo not drawn) | inconclusive: 29.1 µM [rising, single point] |  |
| Cc1ccc(-n2nnnc2-c2cnc(N3CCCC3)nc2C(F)(F)F)cc1 | inconclusive: 29.1 µM [cytotoxic, single point] |  |
| CC(=O)c1cccc(N(C(=O)c2ccco2)C(C(=O)NC2CCCC2)c2cccs2)c1 (stereo not drawn) | inconclusive: 0.206 µM [cytotoxic, full curve] |  |

| SMILES | Potency | activity change, negative = cytotoxicity |
| --- | --- | --- |
| COc1ccc(C=C2SC(=S)NC2=O)c(OC)c1OC | active: 14.6 µM |  |
| CN(C)N1C(N)=C(C#N)C(c2ccc3c(c2)OCO3)C2=C1CC(C)(C)CC2=O (stereo not drawn) |  | inactive: 24.3% |
| Cc1cc(C)c2c(=O)n3c(nc2c1)C(Cc1ccc(O)cc1)NC(=O)c1cc2ccccc2cc1-3 (stereo not drawn) | inconclusive: 29.1 µM [cytotoxic, single point] |  |
| Cc1ccccc1-c1cnc2c(c1)C(=O)N([C@@H](C)CO)C[C@@H](C)[C@H](CN(C)Cc1ccccc1F)O2 |  | inconclusive: -17.5% |
| C[C@H]1CCC[C@]2(O[C@H](CCO)C[C@@H](O)[C@@H]2O)O1 | inconclusive: 29.1 µM [rising, single point] |  |
| CCCCNC(=O)c1nc(C2CCN(S(=O)(=O)c3c(OC)cccc3OC)CC2)oc1-c1ccccc1 | inconclusive: 10.3 µM [cytotoxic, partial curve] |  |
| COc1ccc2sc(-c3ccc(S(C)(=O)=O)cc3)c(-c3ccc(C(N)=O)cc3)c2c1 | inconclusive: 10.3 µM [rising, partial curve, poor fit] |  |
| CC(NC(=O)Cc1c(F)cccc1Cl)C1CCCO1 (stereo not drawn) | inconclusive: 35.5 µM [cytotoxic, single point] |  |
| Cc1noc(C)c1COC(=O)c1cc2ccccc2cc1O | inconclusive: 18.4 µM [cytotoxic, single point] |  |
| Cc1ccc(S(=O)(=O)n2nc(C)c(Br)c2C)c(C)c1C | inconclusive: 18.4 µM [cytotoxic, single point] |  |
| O=C(NNC(=S)Nc1ccc(Br)cc1Cl)c1ccncc1 | inconclusive: 23.1 µM [rising, partial curve] |  |
| COc1cc(OC)c(C(=O)c2ccccc2[N+](=O)[O-])c(OC)c1 |  | inactive: -3.01% |
| Clc1ccc(SCc2cc(N3CCOCC3)nc(-c3ccccn3)n2)cc1 | inconclusive: 32.6 µM [cytotoxic, partial curve, poor fit] |  |
| COc1ccc(-n2c(O)c(/C=N/NS(=O)(=O)c3cccc([N+](=O)[O-])c3)c3ccccc3c2=O)cc1OC |  | inactive: 0% |
| Cc1ccc(CN2C(=O)C(=O)c3cc(C)ccc32)cc1 | inconclusive: 29.1 µM [cytotoxic, single point] |  |
| O=C(CON=C1c2ccccc2-c2ccccc21)NC12CC3CC(CC(C3)C1)C2 | inconclusive: 29.1 µM [cytotoxic, single point] |  |
| CCCCn1nnnc1C(c1ccccc1)N1CCN(Cc2c(F)cccc2Cl)CC1 (stereo not drawn) | inconclusive: 4.61 µM [cytotoxic, partial curve] |  |
| O=C(NN=C1CCN(Cc2ccccc2)CC1)c1ccccc1O | inconclusive: 23.1 µM [cytotoxic, single point] |  |
| CCCc1nnc(NC(=O)CCS(=O)(=O)Cc2ccccc2)s1 |  | inactive: 28.7% |
| C#Cc1ccccc1OCCCN1CCC(C(O)(c2ccccc2)c2ccccc2)CC1 | inconclusive: 11.6 µM [cytotoxic, partial curve] |  |
| Cn1c(=O)c2c(nc(CN3CCN(C(=O)c4ccco4)CC3)n2CC(N)=O)n(C)c1=O | inconclusive: 29.1 µM [rising, single point] |  |
| Cc1cc(C(=O)NNC(=O)c2cccc([N+](=O)[O-])c2)n[nH]1 | inconclusive: 29.1 µM [rising, single point] |  |
